The values below come from paper PMC3491368.

Chains of the proteins cited; added tags and fusions are not shown.
UniProt P83916: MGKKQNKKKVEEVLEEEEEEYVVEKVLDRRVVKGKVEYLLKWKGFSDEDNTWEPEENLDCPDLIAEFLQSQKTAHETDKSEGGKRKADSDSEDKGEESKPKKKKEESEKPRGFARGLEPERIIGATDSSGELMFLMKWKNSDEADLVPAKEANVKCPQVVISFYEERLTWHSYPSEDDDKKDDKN
UniProt Q13263: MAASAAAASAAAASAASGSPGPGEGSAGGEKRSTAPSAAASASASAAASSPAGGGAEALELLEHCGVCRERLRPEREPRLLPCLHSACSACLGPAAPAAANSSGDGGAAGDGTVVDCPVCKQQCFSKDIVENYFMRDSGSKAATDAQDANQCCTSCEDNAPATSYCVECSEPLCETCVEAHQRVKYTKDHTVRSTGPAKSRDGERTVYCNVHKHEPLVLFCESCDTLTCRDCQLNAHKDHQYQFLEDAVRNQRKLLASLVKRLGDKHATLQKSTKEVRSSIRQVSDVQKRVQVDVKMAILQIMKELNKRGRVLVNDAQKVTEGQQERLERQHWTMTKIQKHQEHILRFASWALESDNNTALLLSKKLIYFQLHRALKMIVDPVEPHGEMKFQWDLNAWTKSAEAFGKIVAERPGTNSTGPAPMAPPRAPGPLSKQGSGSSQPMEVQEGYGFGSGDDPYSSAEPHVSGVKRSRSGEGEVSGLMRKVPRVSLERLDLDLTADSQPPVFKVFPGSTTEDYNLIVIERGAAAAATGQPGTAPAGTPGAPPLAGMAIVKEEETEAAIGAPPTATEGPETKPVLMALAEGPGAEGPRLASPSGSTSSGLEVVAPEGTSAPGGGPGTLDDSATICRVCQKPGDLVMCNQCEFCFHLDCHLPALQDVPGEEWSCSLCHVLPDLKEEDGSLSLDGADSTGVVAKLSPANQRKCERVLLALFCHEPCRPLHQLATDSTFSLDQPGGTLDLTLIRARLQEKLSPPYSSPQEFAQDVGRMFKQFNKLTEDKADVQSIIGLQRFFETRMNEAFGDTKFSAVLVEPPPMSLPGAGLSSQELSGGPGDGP

The target of the experiment is FLAG-tagged HP1β (UniProt P83916). In words: co-IP; nuclei of HEK293 cells expressing a FLAG-tagged reader digested with micrococcal nuclease; anti-FLAG immunoprecipitation of bound mononucleosomes, elution with excess FLAG peptide; input, unbound and eluted fractions on 17% SDS-PAGE with Coomassie blue staining.

No constants are given. Whether binding was seen depends on the method and setting. Binding seen in cells or lysates may run through a third protein. Some entries that bind do so weakly or less than the wild type.

Consider “Tif1β protein (from UniProt Q13263 1-835)”, for which the binding result is reported as “binds”.
